Data taken from ChEMBL document CHEMBL3988442, “University of Dundee, Small-Polar-MMV Screening Library” (2021).

Amino acid sequences for entries named in this document (tags omitted). Residues count along the entry.
UniProt P9WFT3, whole entry: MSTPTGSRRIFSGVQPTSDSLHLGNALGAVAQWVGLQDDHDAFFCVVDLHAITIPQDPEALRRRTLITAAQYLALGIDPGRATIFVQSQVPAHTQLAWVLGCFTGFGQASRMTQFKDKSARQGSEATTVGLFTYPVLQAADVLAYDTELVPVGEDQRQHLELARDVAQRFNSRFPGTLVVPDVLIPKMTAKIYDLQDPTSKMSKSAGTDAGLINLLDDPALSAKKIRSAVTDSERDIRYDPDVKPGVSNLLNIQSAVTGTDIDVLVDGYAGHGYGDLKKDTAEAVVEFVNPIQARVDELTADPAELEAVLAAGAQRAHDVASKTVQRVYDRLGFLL
UniProt P9WPC5, whole entry: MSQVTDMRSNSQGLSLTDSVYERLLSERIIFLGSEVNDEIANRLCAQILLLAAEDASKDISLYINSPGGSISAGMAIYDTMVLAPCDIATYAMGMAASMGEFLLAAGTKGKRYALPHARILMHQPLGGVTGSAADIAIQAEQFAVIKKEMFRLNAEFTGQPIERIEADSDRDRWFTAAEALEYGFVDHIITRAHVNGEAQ
UniProt P9WPC3, whole entry partner: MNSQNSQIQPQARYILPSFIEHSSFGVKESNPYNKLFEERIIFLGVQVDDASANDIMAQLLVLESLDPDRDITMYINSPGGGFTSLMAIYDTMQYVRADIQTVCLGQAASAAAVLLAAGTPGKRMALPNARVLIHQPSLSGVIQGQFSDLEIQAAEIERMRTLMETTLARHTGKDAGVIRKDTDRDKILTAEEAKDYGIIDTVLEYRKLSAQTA
UniProt Q8IDJ8, 1-583: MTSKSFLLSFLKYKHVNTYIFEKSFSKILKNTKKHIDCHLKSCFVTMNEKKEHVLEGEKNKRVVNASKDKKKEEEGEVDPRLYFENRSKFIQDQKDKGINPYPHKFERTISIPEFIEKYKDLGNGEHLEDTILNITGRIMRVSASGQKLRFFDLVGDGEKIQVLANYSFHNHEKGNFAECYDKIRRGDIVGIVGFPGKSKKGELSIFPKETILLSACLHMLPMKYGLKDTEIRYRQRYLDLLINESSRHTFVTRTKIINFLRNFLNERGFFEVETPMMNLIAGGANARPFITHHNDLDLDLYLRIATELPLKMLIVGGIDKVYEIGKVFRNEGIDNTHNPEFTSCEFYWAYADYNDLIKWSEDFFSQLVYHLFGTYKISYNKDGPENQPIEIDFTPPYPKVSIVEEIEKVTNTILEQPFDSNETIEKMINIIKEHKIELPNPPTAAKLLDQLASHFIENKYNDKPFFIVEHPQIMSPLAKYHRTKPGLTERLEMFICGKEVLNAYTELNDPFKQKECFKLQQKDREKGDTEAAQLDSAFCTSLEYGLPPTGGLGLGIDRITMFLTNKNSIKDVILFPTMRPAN
UniProt P9WNZ1, whole entry: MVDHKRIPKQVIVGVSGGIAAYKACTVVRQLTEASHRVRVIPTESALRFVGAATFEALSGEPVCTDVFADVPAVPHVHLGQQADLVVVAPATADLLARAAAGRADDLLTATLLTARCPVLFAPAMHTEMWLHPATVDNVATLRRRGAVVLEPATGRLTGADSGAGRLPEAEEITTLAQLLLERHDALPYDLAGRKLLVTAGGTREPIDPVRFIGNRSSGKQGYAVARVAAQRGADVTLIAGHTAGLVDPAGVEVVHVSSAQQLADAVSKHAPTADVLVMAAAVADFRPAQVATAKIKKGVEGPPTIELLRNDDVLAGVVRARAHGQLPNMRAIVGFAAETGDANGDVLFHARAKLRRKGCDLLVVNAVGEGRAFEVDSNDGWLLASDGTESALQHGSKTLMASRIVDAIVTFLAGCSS

A: 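Enzyme assay of tryptophanyl-tRNA synthetase; the read-out is not stated. Target: Tryptophan-tRNA ligase, Mycobacterium tuberculosis (UniProt P9WFT3). Concentration: 10 µM. Direction is not recorded; retested compounds ran higher, which suggests that high means inhibition. Of about 65,000 compounds tested this way, about 64 (0.098%) reached 50% or more in at least one test.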
B: 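ClpP1P2, Mycobacterium tuberculosis (UniProt P9WPC5 and UniProt P9WPC3). Protease assay of ClpP1P2, read by the AMC dye that it sets free. Tested at 50 µM. Higher reads as stronger inhibition, judged from the few compounds that gave an IC50. Most other retested compounds had strongly negative values. Size under these conditions: about 69,000 compounds, about 10 of them at 50% or above in at least one test.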
C: 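Cell assay of Leishmania donovani living inside macrophages; the read-out is not stated. Tested at 30 µM. Higher reads as stronger inhibition (inferred: compounds with an IC50 in retests scored well above the rest). About 69,000 compounds were tested under these conditions; 1.5% (about 1,000) showed 50% or more at least once.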
D: 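Enzyme assay of the cytosolic lysyl-tRNA synthetase in 384-well plates, read by luminescence. Target: Lysine-tRNA ligase, Plasmodium falciparum 3D7 (UniProt Q8IDJ8). Concentration: 30 µM. Higher reads as stronger inhibition, judged from the few compounds that gave an IC50. About 69,000 compounds were tested under these conditions; 0.071% (about 49) showed 50% or more at least once.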
E: 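Enzyme assay of CoaBC with a phosphate dye (Biomol Green) read at 650 nm. Target: Coenzyme A biosynthesis protein CoaBC, Mycobacterium tuberculosis (UniProt P9WNZ1). Concentration: 30 µM. Direction is inferred from only a few compounds that gave an IC50; most scored high, so higher reads as stronger inhibition. Most strong results did not repeat in a second test. Size under these conditions: about 67,000 compounds, about 40 of them at 50% or above in at least one test.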

Values are the deposited “Percent Effect”, in %.
The record does not define 0% and 100%; most values in the screen are far below 50% and negative numbers occur (in some assays of this library far below -100).
The compounds are a random part of those screened.
Two or more numbers in one place are separate tests of the same structure; such repeats can differ widely.
A dash means the value is not listed here; it may have been measured.

Compound,A,B,C,D,E
O=C(O)C(F)(F)F.[H][C@@]12CCN(c3cnccn3)C[C@]1([H])CN(C(=O)c1nccn1C)C2,-,-,-5.237,-,-
CCN(C(=O)c1ccc2nnc(C3CCN(CCOC)C3)n2c1)C(C)C (centres unmarked),-4.661,-0.9938,-,-2.668,4.433
CC(C)N(C)CC(=O)NCc1ccccc1N1CCN(C)CC1,0.5415,17.15,22.47,-0.3509,-10.04
COCCN1CCC2(CC1)CN(C(=O)c1ccccc1)CCO2.O=C(O)C(F)(F)F,-,-,-4.204,-,-
Cc1cc(C)n(CC(C)NC(=O)C2(c3ccc(F)cc3)CC2)n1 (centres unmarked),-6.734,15.32,-69.04,8.562,13.1
CNC(=O)CN1CCC(NC(=O)Cn2cc(C)c3ccccc32)CC1,-0.6463,3.476,0.4096,3.21,9.27
Cn1cnc2c1C(COCC1CCOCC1)CN(c1ncccn1)C2 (centres unmarked),-2.881,-9.921,-,-2.81,8.122
COC(=O)c1cccc2nc([C@H]3CCN(Cc4ccccc4)C3)oc12,-1.297,-19.15,13.68,-1.115,14.81 and 22.59
CCN1CCCC1CN(Cc1ccon1)CC1CCN(CCOC)CC1 (centres unmarked),-3.086,-2.508,0.5465,0.3545,3.676
CN(C)S(=O)(=O)N1CC[C@]2(C[C@H](OCc3ccccn3)CO2)C1.O=C(O)C(F)(F)F,-,-,21.06,-,-
Cc1nn(-c2ccccc2)c2c1c(C(F)F)cc(=O)n2CC(=O)O,-1.295,-6.121,12.27,-0.2895,8.083
O=C(O)C(F)(F)F.O=C(O)C(F)(F)F.[H][C@@]12CN(Cc3cc[nH]n3)C[C@]1([H])OCCN2CCOC,-,-,22.1,-,-
CC1COCCN1C(=O)c1cnccn1 (centres unmarked),-4.464,26.94,-9.653,-2.264,4.126
COc1ccc2c(c1)C(=O)N(C)C1(CCN(C(=O)OC(C)(C)C)CC1)N2,-0.9166,-164.8,5.06,-2.252,-6.016
Cc1cc(O)nc(C2CN(CCC(F)(F)F)CCO2)n1 (centres unmarked),0.6275,-1.002,22.71,0.7749,11.99
CC(=O)NC1CCN(c2cc(C3CCNCC3)ccn2)CC1.Cl.Cl,-,-,9.239,-,-
Cc1cc(N2CCC3(CCC(=O)N(CCCO)C3)CC2)nc(N(C)C)n1,1.583,-2.884,16.05,3.918,0.2012
O=C(NCCC(O)c1ccco1)c1ccco1 (centres unmarked),-0.343,-2.945,9.909,11.06,-0.4202
Cc1[nH]nc(CCC(=O)N2CCOC(CCc3ccccc3)C2)c1C (centres unmarked),-11.33,-4.931,23.03,-0.3625,5.242
Cc1cc(NC(=O)c2ccc(N3CCOCC3)c(F)c2)[nH]n1,-12.58,0.3462,3.688,2.923,-1.21
CN1CCC(c2nc3ccc(-c4ccccc4)cn3n2)CC1.O=C(O)C(F)(F)F,-,-,26.64,-,-
Cc1nn(CC(C)C)c(N(C)C)c1CNCc1ccnn1C,21.55,13.36,1.4,-3.874,3.728
O=C(c1ccncc1)N1CCCN(Cc2nnc(C3CC3)o2)CC1,-0.9082,-7.796,9.078,1.305,-
CNC(=O)[C@@H]1CC[C@@H]2[C@@H](CCN2Cc2ccccc2F)O1,-7.935,-6.54,-,4.54,-1.426
CC(C)COc1cccc(-c2nc3c([nH]2)CCNC3)c1,-4.439,1.77,95.75,7.171,-39.28
Nc1cc(-c2cc(O)cc(C(=O)O)c2)c2cc[nH]c2n1,2.855,-9.125,-8.56,2.77,16.63
O=C(O)C(F)(F)F.[H][C@@]12CCN(C(C)C)C[C@]1([H])CN(C(=O)c1ccc(C)nc1)C2,-,-,13.13,-,-
CC(O)CN1CCC(CN(C)Cc2cccc(C#N)c2)CC1 (centres unmarked),0.5045,5.924,-5.732,0.8124,-
Cc1cccc(C)c1CCNC(=O)N1CCCC2(C1)OCCO2,-3.979,7.253,9.743,-0.1146,-11.57
Cc1nc(COC(=O)c2cccc3c2OCCO3)cs1,-10.75,-5.389,-13.85,0.9541,8.414
C[C@@H]1CN(C(=O)C2(Cn3cccn3)CC2)CC[C@@]1(O)C1CCOCC1,2.12,-13.11,18.53,1.819,4.854
COc1cc(CNc2ccccc2Cl)ccc1OCC(=O)O,-0.288,-3.63,-6.715,-1.233,3.883
CCC(C(=O)N(Cc1ccccc1OC)C1CC1)n1cccn1 (centres unmarked),1.816,-10.56,-8.53,1.583,1.46
COCCNC(=O)Cn1c(-c2ccc(Cl)cc2)nc(C)c(CCO)c1=O,3.352,10.23,23.78,6.483,-3.632
CCOCc1nc2c(c(N3CCCn4nc(C)cc4C3)n1)CCNCC2,7.899,-2.425,-9.629,-0.7464,4.592
CC(Oc1ccc(F)cc1)C(=O)N(CC(N)=O)C1CCCC1 (centres unmarked),2.02,-9.134,-4.917,1.592,-1.576
COCCCN(C)C(=O)c1nnn(-c2ccccc2Cl)c1C,-0.1009,8.111,13.48,3.644,-
[H][C@]12CCC(=O)N[C@@]1(C)CCCCN2C(=O)c1cn2c(C)cccc2n1,-,-,-14.74 and 11.64,-,-
CC1CN(C)CCN1Cc1cccc(C(=O)N(C)C)c1 (centres unmarked),-4.47,-5.351,-10.09,2.461,0
COc1cccc(NC(=O)N(CCO)Cc2ccsc2)c1,-1.517,-2.011,-25.22,3.834,-1.266
CC(C)(C)C(O)CN1CCN(C(=O)c2ccc3c(c2)COC3)CC1 (centres unmarked),16.05,-3.08,8.198,-0.9734,0.2625

For reference, 3 entries once more:

Compound	A	B	C	D	E
O=C(O)C(F)(F)F.O=C(O)C(F)(F)F.[H][C@@]12CN(Cc3cc[nH]n3)C[C@]1([H])OCCN2CCOC	-	-	22.1	-	-
CC(C)N(C)CC(=O)NCc1ccccc1N1CCN(C)CC1	0.5415	17.15	22.47	-0.3509	-10.04
CC(O)CN1CCC(CN(C)Cc2cccc(C#N)c2)CC1 (centres unmarked)	0.5045	5.924	-5.732	0.8124	-